These are yes or no findings as the source states them, for the method shown. Binding seen in cells or lysates may run through a third protein. Some entries that bind do so weakly or less than the wild type.

Common to all, as to test: co-IP; Fig. 4J, K and Supplementary Fig. 2G-I; cell lysate in IP lysis buffer with protease inhibitors, magnetic beads with selected antibodies, overnight at 4 °C, Western blot; cells and bait not stated
For one assay, the target named is T1, IFI6 (UniProt P09912).
T1 sequence: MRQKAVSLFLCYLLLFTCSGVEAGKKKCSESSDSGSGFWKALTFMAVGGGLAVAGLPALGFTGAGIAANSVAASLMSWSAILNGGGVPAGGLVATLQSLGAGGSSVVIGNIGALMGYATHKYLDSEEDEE

Another assay has as its target TGFB1 (UniProt P01137).
In another assay the target is HSP90AA1 (UniProt P07900).

As to HSP90AA1 (from UniProt P07900 1-732), the binding entry with IFI6 and with TGFB1 was “binds” in each case.
Take “AHSA1 (Activator of HSP90AA1 ATPase Activity 1) (from UniProt O95433 1-338)”: the binding entry in the assay with HSP90AA1, with IFI6 and with TGFB1 was “binds” each time.
